Results are given in words; binding and its absence hold for the method and conditions named. For some of these results: Binding seen in cells or lysates may run through a third protein. Some binding calls cover weakened binding; strength is not graded here. For some of these results: Sequences can lack the tags named with a protein.

In experiment [1] the target is T1, Prototype foamy virus (PFV) transactivator Tas, full length, in pGBKT7 (two-hybrid bait) (prototype foamy virus (PFV)) (UniProt P14353).
T1 sequence: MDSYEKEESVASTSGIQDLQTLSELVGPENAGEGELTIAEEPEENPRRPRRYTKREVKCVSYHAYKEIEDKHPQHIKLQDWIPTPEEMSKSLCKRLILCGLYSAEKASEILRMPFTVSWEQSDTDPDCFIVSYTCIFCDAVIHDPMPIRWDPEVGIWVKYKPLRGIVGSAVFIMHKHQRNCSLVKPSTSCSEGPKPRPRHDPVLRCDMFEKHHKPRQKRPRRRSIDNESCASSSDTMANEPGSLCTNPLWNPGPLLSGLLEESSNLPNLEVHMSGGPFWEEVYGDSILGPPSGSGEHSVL
The experiment can be described thus: two-hybrid.

The target of experiment [2] is T2, myc-Tas (prototype foamy virus (PFV)) (UniProt P14353).
T2 sequence: T1 sequence
The experiment can be described thus: co-IP.

For experiment [3], the target named is T3, GST-Tas (prototype foamy virus (PFV)) (UniProt P14353).
T3 sequence: T1 sequence
The experiment can be described thus: pull-down; both purified.

Experiment [4] addresses T4, Flag-Pirh2 (human) (UniProt Q96PM5).
T4 sequence: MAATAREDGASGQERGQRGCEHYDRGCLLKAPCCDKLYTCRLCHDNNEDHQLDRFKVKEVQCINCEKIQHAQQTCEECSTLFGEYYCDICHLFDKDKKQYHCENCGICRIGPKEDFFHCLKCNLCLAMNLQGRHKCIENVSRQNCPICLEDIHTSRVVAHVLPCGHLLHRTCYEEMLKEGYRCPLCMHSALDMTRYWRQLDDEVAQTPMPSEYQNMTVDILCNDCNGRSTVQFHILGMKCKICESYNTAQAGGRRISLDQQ
The experiment can be described thus: co-IP.

B1: Human p53-induced RING-H2 protein (Pirh2), full-length clone from the human 293T cDNA library (two-hybrid prey) (protein, UniProt Q96PM5 1-261)
chain: T4 sequence
On to B1, for which the binding entry in experiment [1] is recorded as “binds”.

B2: Flag-Pirh2 (protein, UniProt Q96PM5 1-261)
chain: T4 sequence
As for B2, in experiment [2], the binding result was “binds”.

B3: MBP-Pirh2 (protein, UniProt Q96PM5 1-261)
chain: T4 sequence
Regarding B3, the binding result in experiment [3] is “binds”.

B4: myc-Tas (protein, UniProt P14353 1-300)
chain: T1 sequence
With B4, the binding result in experiment [4] is reported as “binds”.

The values are drawn from article PMC4411673.
